The test deals with MUC1-C subunit (human (endogenous in BT-549 and MDA-MB-468)). The test is described as follows: affinity purification with mass spectrometry; anti-MUC1-C nuclear precipitates from TNBC cells analysed by mass spectroscopy; endogenous proteins.

No constants are given. Whether binding was seen depends on the method and setting. In cells and extracts the contact can be indirect. Here binding means that the protein was enriched with, or labelled near, the bait; the list need not be complete.

B1: RNA binding motif protein 14 (RBM14) (protein, UniProt Q96PK6 1-669)
chain: MKIFVGNVDGADTTPEELAALFAPYGTVMSCAVMKQFAFVHMRENAGALRAIEALHGHELRPGRALVVEMSRPRPLNTWKIFVGNVSAACTSQELRSLFERRGRVIECDVVKDYAFVHMEKEADAKAAIAQLNGKEVKGKRINVELSTKGQKKGPGLAVQSGDKTKKPGAGDTAFPGTGGFSATFDYQQAFGNSTGGFDGQARQPTPPFFGRDRSPLRRSPPRASYVAPLTAQPATYRAQPSVSLGAAYRAQPSASLGVGYRTQPMTAQAASYRAQPSVSLGAPYRGQLASPSSQSAAASSLGPYGGAQPSASALSSYGGQAAAASSLNSYGAQGSSLASYGNQPSSYGAQAASSYGVRAAASSYNTQGAASSLGSYGAQAASYGAQSAASSLAYGAQAASYNAQPSASYNAQSAPYAAQQAASYSSQPAAYVAQPATAAAYASQPAAYAAQATTPMAGSYGAQPVVQTQLNSYGAQASMGLSGSYGAQSAAAATGSYGAAAAYGAQPSATLAAPYRTQSSASLAASYAAQQHPQAAASYRGQPGNAYDGAGQPSAAYLSMSQGAVANANSTPPPYERTRLSPPRASYDDPYKKAVAMSKRYGSDRRLAELSDYRRLSESQLSFRRSPTKSSLDYRRLPDAHSDYARYSGSYNDYLRAAQMHSGYQRRM
For the molecule B1, the binding result is listed as “binds”.

B2: NUP93 (protein, UniProt Q8N1F7 1-819)
chain: MDTEGFGELLQQAEQLAAETEGISELPHVERNLQEIQQAGERLRSRTLTRTSQETADVKASVLLGSRGLDISHISQRLESLSAATTFEPLEPVKDTDIQGFLKNEKDNALLSAIEESRKRTFGMAEEYHRESMLVEWEQVKQRILHTLLASGEDALDFTQESEPSYISDVGPPGRSSLDNIEMAYARQIYIYNEKIVNGHLQPNLVDLCASVAELDDKSISDMWTMVKQMTDVLLTPATDALKNRSSVEVRMEFVRQALAYLEQSYKNYTLVTVFGNLHQAQLGGVPGTYQLVRSFLNIKLPAPLPGLQDGEVEGHPVWALIYYCMRCGDLLAASQVVNRAQHQLGEFKTWFQEYMNSKDRRLSPATENKLRLHYRRALRNNTDPYKRAVYCIIGRCDVTDNQSEVADKTEDYLWLKLNQVCFDDDGTSSPQDRLTLSQFQKQLLEDYGESHFTVNQQPFLYFQVLFLTAQFEAAVAFLFRMERLRCHAVHVALVLFELKLLLKSSGQSAQLLSHEPGDPPCLRRLNFVRLLMLYTRKFESTDPREALQYFYFLRDEKDSQGENMFLRCVSELVIESREFDMILGKLENDGSRKPGVIDKFTSDTKPIINKVASVAENKGLFEEAAKLYDLAKNADKVLELMNKLLSPVVPQISAPQSNKERLKNMALSIAERYRAQGISANKFVDSTFYLLLDLITFFDEYHSGHIDRAFDIIERLKLVPLNQESVEERVAAFRNFSDEIRHNLSEVLLATMNILFTQFKRLKGTSPSSSSRPQRVIEDRDSQLRSQARTLITFAGMIPYRTSGDTNARLVQMEVLMN
Turning to B2, the binding result was “binds”.

The values above are taken from paper PMC11226401.
